This is one part of the list.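 The calls were made as follows: active = dose-dependent thermal stabilisation significant by F-test of dose-response against flat model at 10% FDR; inactive = not significant.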
The targets below were run with Nc1nc2c(ncn2[C@@H]2O[C@H](COP(=O)(O)OP(=O)(O)OP(=O)(O)O)[C@@H](O)[C@H]2O)c(=O)[nH]1 (assay: dose-dependent thermal stabilisation call (2D-TPP, DLPTP, 10% FDR) (binary (1 = stabilised)); higher = stabilised by the compound). Conditions: system: Jurkat gel-filtered lysate; concentration range 1-500 µM.

Sequences of proteins named here, by UniProt entry; tags and fusion partners are left off. A change or cut given only in a name is not applied to a line headed by its entry.
UniProt Q96QF0: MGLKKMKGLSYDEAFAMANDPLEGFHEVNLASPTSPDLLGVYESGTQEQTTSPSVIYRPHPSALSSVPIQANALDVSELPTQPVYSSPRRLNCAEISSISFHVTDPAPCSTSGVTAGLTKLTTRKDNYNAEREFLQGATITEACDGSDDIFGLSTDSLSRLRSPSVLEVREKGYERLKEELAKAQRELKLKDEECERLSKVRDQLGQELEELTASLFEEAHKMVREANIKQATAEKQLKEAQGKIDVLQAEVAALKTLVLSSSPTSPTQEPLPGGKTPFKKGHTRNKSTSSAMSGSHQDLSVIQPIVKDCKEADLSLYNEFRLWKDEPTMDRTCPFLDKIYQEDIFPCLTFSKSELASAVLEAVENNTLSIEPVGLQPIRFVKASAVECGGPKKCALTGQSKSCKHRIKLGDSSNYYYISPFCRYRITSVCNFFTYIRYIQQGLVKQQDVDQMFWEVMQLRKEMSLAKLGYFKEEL
UniProt O00231, whole entry: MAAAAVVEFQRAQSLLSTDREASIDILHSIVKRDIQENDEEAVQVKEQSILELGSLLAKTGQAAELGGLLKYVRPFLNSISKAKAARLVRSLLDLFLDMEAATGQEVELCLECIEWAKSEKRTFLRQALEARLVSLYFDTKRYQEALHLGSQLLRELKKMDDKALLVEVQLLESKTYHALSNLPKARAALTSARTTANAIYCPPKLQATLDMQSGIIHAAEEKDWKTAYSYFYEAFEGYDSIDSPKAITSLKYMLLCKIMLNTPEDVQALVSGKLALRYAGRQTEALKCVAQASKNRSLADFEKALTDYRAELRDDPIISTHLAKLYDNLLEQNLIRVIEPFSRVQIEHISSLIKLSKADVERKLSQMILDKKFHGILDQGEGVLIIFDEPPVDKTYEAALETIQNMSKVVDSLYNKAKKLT
UniProt Q9H0U4: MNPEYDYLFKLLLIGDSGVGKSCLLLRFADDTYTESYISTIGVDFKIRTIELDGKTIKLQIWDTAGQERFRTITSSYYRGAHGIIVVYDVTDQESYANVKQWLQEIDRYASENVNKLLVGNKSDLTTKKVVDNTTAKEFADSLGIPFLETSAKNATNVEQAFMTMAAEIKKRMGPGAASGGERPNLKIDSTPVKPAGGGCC
UniProt P62195, whole entry: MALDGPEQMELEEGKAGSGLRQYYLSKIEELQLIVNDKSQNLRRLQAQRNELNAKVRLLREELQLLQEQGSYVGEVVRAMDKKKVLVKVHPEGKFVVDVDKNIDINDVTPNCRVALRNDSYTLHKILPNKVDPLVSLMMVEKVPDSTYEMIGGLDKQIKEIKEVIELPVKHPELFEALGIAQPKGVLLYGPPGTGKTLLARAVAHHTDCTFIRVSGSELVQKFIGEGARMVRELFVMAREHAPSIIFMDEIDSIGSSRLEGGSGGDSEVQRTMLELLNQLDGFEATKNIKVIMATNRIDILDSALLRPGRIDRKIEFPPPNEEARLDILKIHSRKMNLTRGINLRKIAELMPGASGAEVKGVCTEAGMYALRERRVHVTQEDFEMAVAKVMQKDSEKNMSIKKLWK
UniProt Q5THK1: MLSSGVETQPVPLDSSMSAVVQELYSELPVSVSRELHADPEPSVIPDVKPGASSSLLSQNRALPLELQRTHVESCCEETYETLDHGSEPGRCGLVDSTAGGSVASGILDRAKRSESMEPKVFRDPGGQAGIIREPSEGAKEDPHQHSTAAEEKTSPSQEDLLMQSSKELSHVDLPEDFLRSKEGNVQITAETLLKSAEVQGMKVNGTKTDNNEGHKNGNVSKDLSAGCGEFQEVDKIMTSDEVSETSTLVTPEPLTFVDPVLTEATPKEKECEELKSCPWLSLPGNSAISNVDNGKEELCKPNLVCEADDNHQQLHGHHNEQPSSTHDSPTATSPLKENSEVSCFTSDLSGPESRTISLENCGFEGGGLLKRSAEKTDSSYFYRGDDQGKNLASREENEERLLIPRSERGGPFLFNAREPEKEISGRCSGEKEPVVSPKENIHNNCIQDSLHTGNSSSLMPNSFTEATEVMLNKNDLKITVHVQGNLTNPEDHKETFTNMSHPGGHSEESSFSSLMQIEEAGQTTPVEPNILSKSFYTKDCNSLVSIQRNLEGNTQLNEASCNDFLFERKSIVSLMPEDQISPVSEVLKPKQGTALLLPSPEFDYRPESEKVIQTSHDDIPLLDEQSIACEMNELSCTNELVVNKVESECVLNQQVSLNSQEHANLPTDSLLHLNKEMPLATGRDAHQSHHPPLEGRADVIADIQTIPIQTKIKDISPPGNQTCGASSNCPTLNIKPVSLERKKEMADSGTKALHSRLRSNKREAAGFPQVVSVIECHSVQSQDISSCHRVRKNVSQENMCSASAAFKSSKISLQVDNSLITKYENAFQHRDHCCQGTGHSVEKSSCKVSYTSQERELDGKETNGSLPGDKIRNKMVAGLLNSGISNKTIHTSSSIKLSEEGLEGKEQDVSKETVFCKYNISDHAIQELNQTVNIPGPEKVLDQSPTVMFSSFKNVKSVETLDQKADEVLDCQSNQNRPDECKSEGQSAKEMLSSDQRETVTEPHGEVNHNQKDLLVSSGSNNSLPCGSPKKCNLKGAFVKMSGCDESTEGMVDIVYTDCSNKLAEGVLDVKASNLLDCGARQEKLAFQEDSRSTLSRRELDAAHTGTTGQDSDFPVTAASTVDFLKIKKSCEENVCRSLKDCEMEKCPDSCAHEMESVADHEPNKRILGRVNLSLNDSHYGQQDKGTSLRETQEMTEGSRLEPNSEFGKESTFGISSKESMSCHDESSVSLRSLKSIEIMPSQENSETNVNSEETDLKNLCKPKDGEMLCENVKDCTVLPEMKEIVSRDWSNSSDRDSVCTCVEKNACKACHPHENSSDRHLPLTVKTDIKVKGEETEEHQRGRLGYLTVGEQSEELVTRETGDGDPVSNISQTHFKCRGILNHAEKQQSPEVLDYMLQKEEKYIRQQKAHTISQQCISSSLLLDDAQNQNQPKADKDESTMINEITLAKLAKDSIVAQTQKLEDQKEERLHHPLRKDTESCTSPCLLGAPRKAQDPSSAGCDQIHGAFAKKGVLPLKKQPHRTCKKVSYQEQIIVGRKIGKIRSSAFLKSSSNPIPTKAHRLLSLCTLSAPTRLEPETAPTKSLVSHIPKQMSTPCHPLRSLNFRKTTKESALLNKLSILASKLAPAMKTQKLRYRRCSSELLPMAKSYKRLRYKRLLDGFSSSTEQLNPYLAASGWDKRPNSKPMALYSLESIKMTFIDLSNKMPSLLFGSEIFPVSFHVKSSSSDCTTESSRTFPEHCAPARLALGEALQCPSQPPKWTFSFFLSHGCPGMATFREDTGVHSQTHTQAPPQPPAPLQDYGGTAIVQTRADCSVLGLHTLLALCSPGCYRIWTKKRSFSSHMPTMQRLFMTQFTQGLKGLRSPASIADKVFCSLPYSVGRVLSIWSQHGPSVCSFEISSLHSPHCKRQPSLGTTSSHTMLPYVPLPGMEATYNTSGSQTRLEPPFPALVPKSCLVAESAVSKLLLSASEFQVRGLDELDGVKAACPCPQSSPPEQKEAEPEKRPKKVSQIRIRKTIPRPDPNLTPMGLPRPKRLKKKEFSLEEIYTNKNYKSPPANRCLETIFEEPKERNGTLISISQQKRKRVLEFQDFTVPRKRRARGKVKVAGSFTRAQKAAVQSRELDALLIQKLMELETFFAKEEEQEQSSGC
UniProt Q9NS91, whole entry: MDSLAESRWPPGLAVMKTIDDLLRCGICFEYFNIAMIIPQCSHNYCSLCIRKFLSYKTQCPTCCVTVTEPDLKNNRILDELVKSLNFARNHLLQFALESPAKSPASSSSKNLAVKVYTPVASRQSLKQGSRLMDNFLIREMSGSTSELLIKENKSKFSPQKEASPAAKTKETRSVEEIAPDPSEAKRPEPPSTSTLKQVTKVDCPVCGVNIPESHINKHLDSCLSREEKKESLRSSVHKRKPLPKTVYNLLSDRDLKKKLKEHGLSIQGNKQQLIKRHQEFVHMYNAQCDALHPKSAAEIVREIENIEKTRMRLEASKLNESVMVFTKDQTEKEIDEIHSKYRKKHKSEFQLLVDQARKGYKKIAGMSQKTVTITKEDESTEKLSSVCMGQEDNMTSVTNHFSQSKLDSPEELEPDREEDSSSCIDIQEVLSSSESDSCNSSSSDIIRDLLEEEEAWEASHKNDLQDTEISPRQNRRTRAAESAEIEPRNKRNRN
UniProt Q15274: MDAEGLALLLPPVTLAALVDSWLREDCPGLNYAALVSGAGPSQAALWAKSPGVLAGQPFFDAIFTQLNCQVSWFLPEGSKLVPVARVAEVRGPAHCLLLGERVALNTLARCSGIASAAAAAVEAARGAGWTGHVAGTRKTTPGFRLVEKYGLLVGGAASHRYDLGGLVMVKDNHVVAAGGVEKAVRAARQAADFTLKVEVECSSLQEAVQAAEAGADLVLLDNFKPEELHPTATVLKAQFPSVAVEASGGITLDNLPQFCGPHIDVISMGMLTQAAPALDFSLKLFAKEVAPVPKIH
UniProt P26599: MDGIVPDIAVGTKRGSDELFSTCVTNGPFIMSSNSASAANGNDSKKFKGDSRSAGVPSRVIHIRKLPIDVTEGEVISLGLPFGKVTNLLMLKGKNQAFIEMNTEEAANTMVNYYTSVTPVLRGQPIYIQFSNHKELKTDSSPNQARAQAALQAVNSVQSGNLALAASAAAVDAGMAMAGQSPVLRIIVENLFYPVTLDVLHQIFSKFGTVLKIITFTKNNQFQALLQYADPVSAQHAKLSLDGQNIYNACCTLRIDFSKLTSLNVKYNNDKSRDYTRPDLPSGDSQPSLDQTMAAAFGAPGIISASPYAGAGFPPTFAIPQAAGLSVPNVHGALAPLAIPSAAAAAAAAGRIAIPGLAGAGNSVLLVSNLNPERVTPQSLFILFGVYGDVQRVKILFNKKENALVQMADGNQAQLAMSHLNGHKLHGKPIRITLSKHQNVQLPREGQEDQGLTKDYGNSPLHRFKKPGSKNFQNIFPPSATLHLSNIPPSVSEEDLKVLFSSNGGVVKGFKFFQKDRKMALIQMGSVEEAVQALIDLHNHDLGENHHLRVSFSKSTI
UniProt Q9H477: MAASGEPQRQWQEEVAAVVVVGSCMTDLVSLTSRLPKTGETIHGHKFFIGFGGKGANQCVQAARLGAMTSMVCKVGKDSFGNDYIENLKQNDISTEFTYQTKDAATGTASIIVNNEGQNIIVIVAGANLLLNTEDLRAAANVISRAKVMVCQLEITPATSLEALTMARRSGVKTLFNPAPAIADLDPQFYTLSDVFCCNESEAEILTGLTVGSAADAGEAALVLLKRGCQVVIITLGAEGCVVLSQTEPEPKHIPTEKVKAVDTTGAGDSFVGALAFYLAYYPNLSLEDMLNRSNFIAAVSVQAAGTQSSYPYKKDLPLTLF
UniProt P09417: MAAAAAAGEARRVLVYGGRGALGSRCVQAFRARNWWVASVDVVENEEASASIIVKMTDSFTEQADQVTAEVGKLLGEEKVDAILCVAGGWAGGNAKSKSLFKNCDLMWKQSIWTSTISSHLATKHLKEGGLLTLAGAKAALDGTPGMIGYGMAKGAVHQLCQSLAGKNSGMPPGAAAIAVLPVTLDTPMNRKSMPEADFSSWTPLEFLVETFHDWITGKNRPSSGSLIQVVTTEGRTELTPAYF
UniProt Q9NTZ6: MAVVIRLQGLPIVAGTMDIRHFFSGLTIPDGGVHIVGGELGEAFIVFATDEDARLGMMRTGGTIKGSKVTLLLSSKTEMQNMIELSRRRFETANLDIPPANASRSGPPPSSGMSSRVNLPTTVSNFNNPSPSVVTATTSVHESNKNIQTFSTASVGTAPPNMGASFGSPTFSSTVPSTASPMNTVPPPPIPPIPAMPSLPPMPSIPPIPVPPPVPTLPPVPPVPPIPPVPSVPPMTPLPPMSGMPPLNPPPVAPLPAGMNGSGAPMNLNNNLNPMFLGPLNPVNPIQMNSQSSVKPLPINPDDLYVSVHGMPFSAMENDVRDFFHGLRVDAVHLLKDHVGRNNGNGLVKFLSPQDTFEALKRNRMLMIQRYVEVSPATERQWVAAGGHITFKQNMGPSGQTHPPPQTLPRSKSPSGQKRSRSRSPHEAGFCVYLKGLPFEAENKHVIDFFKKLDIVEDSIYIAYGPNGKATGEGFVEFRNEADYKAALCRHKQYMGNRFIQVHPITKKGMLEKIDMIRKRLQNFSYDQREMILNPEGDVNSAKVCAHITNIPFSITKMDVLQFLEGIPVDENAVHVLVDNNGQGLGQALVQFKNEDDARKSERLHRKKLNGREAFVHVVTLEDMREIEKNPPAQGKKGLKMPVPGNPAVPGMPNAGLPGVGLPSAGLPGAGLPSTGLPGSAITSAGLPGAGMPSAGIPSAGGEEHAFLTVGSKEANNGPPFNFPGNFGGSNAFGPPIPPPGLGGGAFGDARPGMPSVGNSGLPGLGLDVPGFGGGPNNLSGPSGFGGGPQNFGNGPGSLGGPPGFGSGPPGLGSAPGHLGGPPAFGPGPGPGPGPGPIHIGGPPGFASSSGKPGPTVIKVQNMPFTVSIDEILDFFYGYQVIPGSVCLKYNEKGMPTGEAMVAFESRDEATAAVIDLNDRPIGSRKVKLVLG

Target | dose-dependent thermal stabilisation call
PTPRK (UniProt Q15262) | inactive: 0
PRR36 (UniProt Q9H6K5) | inactive: 0
R3HCC1L (UniProt Q7Z5L2) | inactive: 0
RAB8A (UniProt P61006) | active: 1
RAB3IP (UniProt Q96QF0) | inactive: 0
RANBP2 (UniProt P49792) | inactive: 0
PSMD11 (UniProt O00231) | inactive: 0
RASSF5 (UniProt Q8WWW0) | active: 1
PTPRE (UniProt P23469) | inactive: 0
PTK7 (UniProt Q13308) | inactive: 0
PRPF4B (UniProt Q13523) | active: 1
RBM8A (UniProt Q9Y5S9) | inactive: 0
PRPF8 (UniProt Q6P2Q9) | active: 1
RAB2B (UniProt Q8WUD1) | active: 1
RAB1B (UniProt Q9H0U4) | active: 1
RAP1GAP2 (UniProt Q684P5) | active: 1
PTMA (UniProt P06454) | inactive: 0
PSMC5 (UniProt P62195) | inactive: 0

At a glance, part of the list above:
Target | dose-dependent thermal stabilisation call
PTPRK (UniProt Q15262) | inactive: 0
PRR36 (UniProt Q9H6K5) | inactive: 0

Continuation:

Target | dose-dependent thermal stabilisation call
PRR14L (UniProt Q5THK1) | inactive: 0
RAD18 (UniProt Q9NS91) | active: 1
RAD51C (UniProt O43502) | active: 1
RAC2 (UniProt P15153) | active: 1
RAVER1 (UniProt Q8IY67) | inactive: 0
PUS1 (UniProt Q9Y606) | active: 1
RAB3A (UniProt P20336) | active: 1
QPRT (UniProt Q15274) | inactive: 0
RABGEF1 (UniProt Q9UJ41) | inactive: 0
PTPRC (UniProt P08575) | inactive: 0
PTBP1 (UniProt P26599) | active: 1
PSMA6 (UniProt P60900) | inactive: 0
RBKS (UniProt Q9H477) | inactive: 0
RBM42 (UniProt Q9BTD8) | inactive: 0
PRMT6 (UniProt Q96LA8) | inactive: 0
PYCR2 (UniProt Q96C36) | inactive: 0
QDPR (UniProt P09417) | inactive: 0
RBM12 (UniProt Q9NTZ6) | inactive: 0

Source: the supplement of paper PMC7666118
